Data source: PubChem BioAssay AID1259425 (University of Nebraska Medical Center, 2018)
The deposit covers about 14,000 reagents; below is an unselected part. Some reagents were tested in more than one well and are listed for each. Further read-outs or replicates are left out here. No sequences are given here. Not stated in the record: the time to read-out.

Screen: 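Seek colon cancer weak points whose silencing resembles KSR1 loss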 (primary screen)
System: HCT116 human colon cancer cells
Reagent: siRNA pool against human genes, 50 nM siRNA
Measured: 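After 50 nM siRNA pool, branched-DNA assay measures six marker transcripts per well, minus blank, normalised to the geometric mean of two housekeeping transcripts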
Direction: BNIP3L mRNA: higher = more BNIP3L transcript after knockdown

Silencing of DCAF10 (DDB1 and CUL4 associated factor 10) [SID364002811] came out at: BNIP3L mRNA, set 1 = 0.0807.
MRPL51 (mitochondrial ribosomal protein L51) [SID364000150] gave BNIP3L mRNA, set 1 = 0.0945.
FASTKD2 (FASTK mitochondrial RNA regulator 2) [SID363999203] gave BNIP3L mRNA, set 1 = 0.137.
Silencing of TSHB (thyroid stimulating hormone subunit beta) [SID363991872] came out at: BNIP3L mRNA, set 1 = 0.0965.
For POU2F1 (POU class 2 homeobox 1) [SID363993857] the deposit lists BNIP3L mRNA, set 1 = 0.0932.
With knock-down of APLP2 (amyloid beta precursor like protein 2) [SID363992867], the record shows BNIP3L mRNA, set 1 = 0.0773.
BCL2L10 (BCL2 like 10) [SID364001660] gave BNIP3L mRNA, set 1 = 0.102.
Silencing of ACTN3 (actinin alpha 3) [SID363992401] gave: BNIP3L mRNA, set 1 = 0.219.
PIP5K1P1 [SID364004737] showed BNIP3L mRNA, set 1 = 0.0897.
Against MKRN3 (makorin ring finger protein 3) [SID363996556] the deposit lists BNIP3L mRNA, set 1 = 0.257.
For NWD2 (NACHT and WD repeat domain containing 2) [SID364005216], the entry reads BNIP3L mRNA, set 1 = 0.127.
After knock-down of MEX3B (mex-3 RNA binding family member B) [SID364003848], the record shows BNIP3L mRNA, set 1 = 0.202.
COLQ [SID363996567] scored BNIP3L mRNA, set 1 = 0.114.
CD82 (CD82 molecule) [SID363993431] showed BNIP3L mRNA, set 1 = 0.0815.
After knock-down of TROAP (trophinin associated protein) [SID363996382], the screen gave BNIP3L mRNA, set 1 = 0.353.
Depletion of POLR1G (RNA polymerase I subunit G) [SID363998048] gave: BNIP3L mRNA, set 1 = 0.0764.
Knock-down of GPR4 (G protein-coupled receptor 4) [SID363996201] gave: BNIP3L mRNA, set 1 = 0.109.
Silencing of DARS1 (aspartyl-tRNA synthetase 1) [SID363992626] came out at: BNIP3L mRNA, set 1 = 0.113.
With knock-down of RNPC3 (RNA binding region (RNP1, RRM) containing 3) [SID364000396], the screen gave BNIP3L mRNA, set 1 = 0.0427.
Knock-down of TMX2 (thioredoxin related transmembrane protein 2) [SID363999753] resulted in: BNIP3L mRNA, set 1 = 0.188.
With knock-down of SCUBE2 (signal peptide, CUB domain and EGF like domain containing 2) [SID364001924] the results were BNIP3L mRNA, set 1 = 0.076.
C2CD5 (C2 calcium dependent domain containing 5) [SID363999117] showed BNIP3L mRNA, set 1 = 0.127.
With knock-down of SLC18A1 [SID363994201], the screen gave BNIP3L mRNA, set 1 = 0.0927.
After knock-down of PIAS2 (protein inhibitor of activated STAT 2) [SID363995635], the record shows BNIP3L mRNA, set 1 = 0.174.
After knock-down of FOXE1 (forkhead box E1) [SID363995454], the screen gave BNIP3L mRNA, set 1 = 0.0827.
Depletion of FOXE1 (forkhead box E1) [SID363995454] resulted in: BNIP3L mRNA, set 1 = 0.17.
CYBC1 (cytochrome b-245 chaperone 1) [SID364002834] gave BNIP3L mRNA, set 1 = 0.186.
Against REG1CP (regenerating family member 1 gamma, pseudogene) [SID363997305], the values are BNIP3L mRNA, set 1 = 0.135.
